# Results taken from PubChem BioAssay AID504467 (National Center for Advancing Translational Sciences (NCATS), 2011).
# Hit rate of the full screen: of about 330,000 compounds, about 7,700 (2.3%) were called active. The shares of active, inactive and inconclusive entries below differ from those in the screen. Calls follow the shape of the dose curve; as a rule, active = well fitted inhibition curve with a large enough effect; inconclusive = small, poorly fitted or top-dose-only effect, or effect the other way; inactive = flat fitted curve, though single readings scatter. Potencies of inconclusive entries are doubtful fits and often do not repeat.
# Experiment: qHTS screen for small molecules that inhibit ELG1-dependent DNA repair in human embryonic kidney (HEK293T) cells expressing luciferase-tagged ELG1; also: nearly all actives have a fitted effect of over 55% in size
# Details: HEK293T ELG1-luciferase reporter, luminescence, 16 h, DNA damage induced by 5-fluorouridine; series mostly up to 46.1 µM
# Procedure, shortened: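 Reporter activity after DNA damage by 5-fluorouridine is monitored. Compound-treated cells incubate 16 hr at 37 °C, then ONE-Glo is added for 30 min before luminescence reading.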
# Potency is read from the fitted curve at half-maximal effect.
row,SMILES,Potency
1,O=C(Nc1ccc(S(=O)(=O)Nc2ncccn2)cc1)c1ccc(S(=O)(=O)N2CCCC2)cc1,"inconclusive: 14.6 µM [inhibitor, partial curve, poor fit]"
2,Cc1ccc(-n2nc3c(=O)n(CC(=O)c4ccc(F)cc4)nc(C)c3c2C)cc1,"inconclusive: 29.1 µM [inhibitor, single point]"
3,COc1ccc(/C=N/n2c(N)nc3ccccc32)cc1OC,"inconclusive: 4.61 µM [activator, full curve]"
4,O=[N+]([O-])c1ccccc1CNC(Cc1ccccc1)c1ccccc1 (stereo not drawn),inactive
5,CC(NC(=O)Cc1ccccc1)C1COc2ccccc2O1 (stereo not drawn),inactive
6,CN=Cc1sc2ccccc2c1O,"inconclusive: 23.1 µM [activator, single point]"
7,COC(=O)c1c(-c2ccccc2)csc1NC(=O)c1c(-c2ccccc2)noc1C,"inconclusive: 32.6 µM [inhibitor, single point]"
8,COc1ccc(-c2ccc3c(N)c(C(=O)c4ccc(OC)c(OC)c4)sc3n2)cc1,"inconclusive: 20.6 µM [activator, partial curve, poor fit]"
9,N#C/C(=C/c1ccccc1[N+](=O)[O-])c1nc(C2CC2)cs1,"inconclusive: 16.4 µM [activator, single point]"
10,COc1ccccc1OCCNC(=O)c1cc([N+](=O)[O-])cc([N+](=O)[O-])c1,"inconclusive: 20.6 µM [inhibitor, partial curve]"
11,CN(Cc1ccc(F)cc1)C(=O)c1cccc(S(=O)(=O)N2CCN(c3ccc(F)cc3)CC2)c1,"inconclusive: 5.8 µM [inhibitor, single point]"
12,COc1cccc(-c2cc(C(F)(F)F)nc(-n3cncn3)n2)c1,"inconclusive: 32.6 µM [inhibitor, single point]"
13,O=C(c1ccc(Cl)cc1)c1cnc(Nc2ccccc2)s1,"inconclusive: 3.55 µM [activator, partial curve, poor fit]"
14,O=C1c2ccccc2NC(c2ccc(Cl)cc2Cl)N1Cc1ccccc1 (stereo not drawn),"inconclusive: 0.92 µM [activator, single point]"
15,Cc1ccc(NC(=S)N(CCC(C)C)C(C)c2ccncc2)c(Cl)c1 (stereo not drawn),"inconclusive: 18.3 µM [inhibitor, partial curve, poor fit]"
16,CCN(CC)CCn1c2ccccc2c2n[nH]c(=S)nc21,inactive
17,CCOC(=O)c1sc(NC(=O)C(OC(C)=O)c2ccccc2)nc1C (stereo not drawn),"inconclusive: 16.4 µM [activator, single point]"
18,CC1=NN(c2ccccc2)C(=O)/C1=C\C=C1/N(C)c2ccccc2C1(C)C,"inconclusive: 16.4 µM [inhibitor, single point]"
19,O=C(O)COn1c(-c2ccccc2)nc2ccc(Cl)cc21,"inconclusive: 16.4 µM [activator, partial curve]"
20,Cc1ncc(CO)c2c1Oc1nc(-c3ccccc3F)nc(SCC(=O)N(C)c3ccccc3)c1C2,active: 2.91 µM
21,O=C(N/N=C\c1cccs1)c1sccc1-n1cccc1,inactive
22,COc1cc(/C=C(/C#N)C(=O)NCCc2c[nH]c3ccccc23)ccc1OCc1ccccc1F,"inconclusive: 3.16 µM [activator, partial curve, poor fit]"
23,O=C(Nc1ccc(Cl)c(Cl)c1)N1CCCCCC1,"inconclusive: 8.2 µM [activator, partial curve]"

row,SMILES,Potency
1,Cc1cc(C(=O)Nc2ccc([N+](=O)[O-])cn2)cs1,"inconclusive: 10.3 µM [activator, partial curve]"
2,CC1CC(OC(=O)C2CCN(S(=O)(=O)c3ccc(F)cc3)CC2)C(=O)O1 (stereo not drawn),inactive
3,CCCN(CC(=O)Nc1ccccc1C)C(=O)CCCc1c[nH]c2ccccc12,inactive
4,CCOC(=O)c1c(C)[nH]c(C(=O)OCC(=O)NCc2ccc(C)cc2)c1C,"inconclusive: 35.5 µM [inhibitor, single point]"
5,CCOC(=O)/C(=N/Nc1ccccc1)N1CCCc2ccccc21,inactive
6,C/C(CCc1ccccc1)=N\NC(=O)C(=O)Nc1cccc(Cl)c1,inactive
7,O=C(NN=C1c2ccccc2-c2ccccc21)c1ccccc1Br,"inconclusive: 1.16 µM [inhibitor, single point]"
8,CCNc1nc(NCC)n2c(SCC(=O)Nc3cc(OC)ccc3OC)nnc2n1,inactive
9,CCCNC(=O)c1ccc(N2CCC3(CC2)CC(c2ccccc2)=NO3)c(NC(=O)c2cccc(C)c2)c1,"inconclusive: 5.17 µM [inhibitor, single point]"
10,COc1cccc(-c2sc3ccc(OC)cc3c2-c2ccc(OCCN(C)C)cc2)c1,"inconclusive: 25.9 µM [inhibitor, partial curve, poor fit]"
11,Cc1cc(C)n(-c2nc(Nc3ccccc3C(F)(F)F)nc(-n3nc(C)cc3C)n2)n1,active: 13 µM
12,Nc1nc(SCC(=O)Nc2ccc(Cl)c(S(=O)(=O)N3CCOCC3)c2)n[nH]1,inactive
13,C=CCn1c(O)c(N=NC(=S)Nc2ccc(OC)c(Cl)c2)c2ccccc21,"inconclusive: 29.1 µM [activator, single point]"
14,CCOC(=O)N1CCC(NC(=O)c2cc3c(C)nc4ccccc4c3o2)CC1,active: 13 µM
15,O=C(N/N=C/c1ccccn1)NC12CC3CC(CC(C3)C1)C2,"inconclusive: 14.6 µM [activator, partial curve]"
16,CC(=O)Nc1cc2c(=O)n(Cc3ccccc3)c(C)nc2cc1N1CCOCC1,"inconclusive: 18.4 µM [activator, single point]"
17,CCOC(=O)/C(=C/Nc1ccc(F)c(F)c1)[N+](=O)[O-],inactive
18,COc1ccc2ccccc2c1CNCCN1CCOCC1,inactive
19,Cc1nnc(NC(=O)c2csc3c2CCCC3)s1,"inconclusive: 20.6 µM [activator, partial curve]"
20,CCC(=O)Nc1nc(-c2ccc3c(c2)CC(C)N3S(C)(=O)=O)cs1 (stereo not drawn),"inconclusive: 29.1 µM [inhibitor, single point]"
21,COc1c(O)cc2oc(-c3ccc(O)c(O)c3)cc(=O)c2c1O,"inconclusive: 13 µM [activator, partial curve]"
22,Nn1c(SCc2ccc(Br)cc2)nnc1-c1ccncc1,"inconclusive: 14.6 µM [activator, partial curve]"
23,Brc1ccc(-c2ncc3ccccn23)cc1,"inconclusive: 16.4 µM [activator, partial curve]"

# In a second layout: results already given.
row | SMILES | Potency
14 | CCOC(=O)N1CCC(NC(=O)c2cc3c(C)nc4ccccc4c3o2)CC1 | active: 13 µM
15 | O=C(N/N=C/c1ccccn1)NC12CC3CC(CC(C3)C1)C2 | inconclusive: 14.6 µM [activator, partial curve]
16 | CC(=O)Nc1cc2c(=O)n(Cc3ccccc3)c(C)nc2cc1N1CCOCC1 | inconclusive: 18.4 µM [activator, single point]
17 | CCOC(=O)/C(=C/Nc1ccc(F)c(F)c1)[N+](=O)[O-] | inactive
18 | COc1ccc2ccccc2c1CNCCN1CCOCC1 | inactive

# 3 entries from above, arranged by SMILES length, descending.
row,SMILES,Potency
4,CCOC(=O)c1c(C)[nH]c(C(=O)OCC(=O)NCc2ccc(C)cc2)c1C,"inconclusive: 35.5 µM [inhibitor, single point]"
8,CCNc1nc(NCC)n2c(SCC(=O)Nc3cc(OC)ccc3OC)nnc2n1,inactive
21,COc1c(O)cc2oc(-c3ccc(O)c(O)c3)cc(=O)c2c1O,"inconclusive: 13 µM [activator, partial curve]"

# Going on with the list:

row,SMILES,Potency
1,COc1cccc(-c2csc(NC(=O)Oc3ccccc3)n2)c1,"inconclusive: 25.9 µM [activator, single point]"
2,COc1ccc(-c2nc(CS(=O)(=O)CC(=O)NC3CCC(C)CC3)c(C)o2)cc1 (stereo not drawn),inactive
3,Cc1ccc(S(=O)(=O)Oc2cccc(/C=N/Nc3ccc(C(=O)O)cc3)c2)cc1,"inconclusive: 23.1 µM [activator, partial curve]"
4,O=C(CN1C(=O)CCC1=O)Nc1nc(-c2ccc(Oc3ccccc3)cc2)cs1,"inconclusive: 29.1 µM [inhibitor, single point]"
5,Cc1ccc(C(=O)NCC(=O)NCCSc2ccc(Br)cc2)cc1,inactive
6,CCOC(=O)C1CCCN1C(=O)c1ccc(OC)c(Br)c1 (stereo not drawn),inactive
7,NC(=O)c1ccc(NC(=O)CCC(=O)N2CCN(S(=O)(=O)c3ccc(Cl)cc3)CC2)cc1,"inconclusive: 16.4 µM [inhibitor, single point]"
8,COc1ccc2c(c1OC)C(=O)N1N=C(c3ccc(Cl)cc3)CC21 (stereo not drawn),"inconclusive: 20.6 µM [inhibitor, single point]"
9,Cc1ccc(NC(=O)/C=C/c2ccco2)nc1,"inconclusive: 7.31 µM [activator, partial curve]"
10,O=c1cc(CN2CCN(c3ccc(O)cc3)CC2)nc2scc(-c3ccccc3)n12,"inconclusive: 20.6 µM [inhibitor, partial curve]"
11,COc1ccc(OCC(O)Cn2c(N3CCCCC3)nc3c2c(=O)n(C)c(=O)n3C)cc1 (stereo not drawn),"inconclusive: 16.4 µM [inhibitor, single point]"
12,O=C(NCCN1CCCCC1)Nc1cccc(C(F)(F)F)c1,"inconclusive: 5.8 µM [activator, partial curve, poor fit]"
13,CCOC(=O)C1CCCN(c2c(NCCc3ccc(C)cc3)c(=O)c2=O)C1 (stereo not drawn),"inconclusive: 23.1 µM [activator, partial curve]"
14,O=C1C(=O)N(c2ccccn2)C(c2cccc([N+](=O)[O-])c2)/C1=C(/O)c1ccc(Br)cc1 (stereo not drawn),inactive
15,O=C(Nc1ccc2c(c1)OCO2)N1CCN(c2ccccc2Cl)CC1,"inconclusive: 8.2 µM [activator, partial curve, poor fit]"
16,CC1CN(C(=O)c2ccc3c(c2)OCO3)CC(C)O1 (stereo not drawn),"inconclusive: 25.9 µM [activator, partial curve, poor fit]"
17,CCS(=O)(=O)c1ccc(C(=O)Nc2ccccc2OC)c(Cl)c1Cl,"inconclusive: 16.4 µM [inhibitor, partial curve, poor fit]"
18,Cc1ccccc1-c1nc(CS(=O)CC(=O)NC(C)CCc2ccccc2)c(C)o1 (stereo not drawn),inactive
19,CCOC(=O)c1csc(NC(=O)CC2CCCC2)n1,inactive
20,COc1ccc(N(C(=O)c2cnccn2)C(C(=O)NC2CCCCC2)c2ccc(O)cc2)cc1 (stereo not drawn),inactive
21,O=C(NCCN1CCN(S(=O)(=O)c2ccccc2)CC1)C(=O)Nc1ccc(F)cc1,"inconclusive: 20.6 µM [inhibitor, single point]"
22,Cc1ccc(S(=O)(=O)N(C)C)cc1-n1c(SCC(=O)Nc2ccc(F)cc2)nc2ccccc2c1=O,"inconclusive: 20.6 µM [inhibitor, partial curve]"
